Source: US20170165366A1

B1: MAB19-IgG4 (antibody, V domains shown)
VH: QVQLVQSGAEVKKPGASVKVSCKASGYTFTSHYMGWVRQAPGQGLEWMGVINPSMGATSYAQKFQGRVTMTRDTSTSTVYMELSSLRSEDTAVYYCARLHVSGSYYPAYLDYWGQGTMVTVSS
VL: EIVMTQSPATLSVSPGERATLSCRASQSVSSNLAWYQQKPGQAPRHLIYGASTRATGIPARFSGSGSGTEFTLTISSLQSEDFAVYYCQQYIVFPWTFGGGTKVEIKR
B2: MAB20-IgG4 (antibody, V domains shown)
VH: B1 VH with M48V, V50I
VL: B1 VL
B3: MAB21-IgG4 (antibody, V domains shown)
VH: B1 VH with V50I, A61T, Q65R
VL: B1 VL

Molecular target: cynomolgus monkey TIGIT-His (cynomolgus monkey)
Experiment: BLI (ForteBio), IgG on AHQ sensor, single antigen concentration

Row | Binder | binding
1 | B1 | no binding (tested: 100 nM antigen)
2 | B2 | no binding (tested: 100 nM antigen)
3 | B3 | no binding (tested: 100 nM antigen)

Positions count from the first letter of the chain named. These are yes or no findings as the source states them, for the method shown.
